Experimental data reported in PubChem BioAssay AID493014 (National Center for Advancing Translational Sciences (NCATS), 2011).
This is one part of the list. These are further read-outs of the screen, such as a control signal, another cell line or another target. No call is given for them. The list favours compounds with an active or inconclusive main result. The note in brackets gives the kind of curve behind each potency; many fits are weak.

Test: qHTS Assay to Find Inhibitors of Chronic Active B-Cell Receptor Signaling
Settings: ABC-DLBCL IkBa-CBG/CBR reporter, luminescence ratio (green luciferase fused to IkBa over red control in TMD8 lymphoma cells), 4 h
How it was run: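 TMD8 human ABC-DLBCL cells with doxycycline-inducible IκBα–green luciferase fusion and unfused red luciferase, in 0.5% FBS medium; compounds up to 46 uM, 4 h at 37C. Green/red luminescence ratio, filter-overlap corrected, fitted to concentration-response curves.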

[1] = measured here: CBR red luminescence, cell number
[2] = measured here: IkBa-CBG green luminescence

Row | SMILES | AC50 [1] | AC50 [2]
1 | O=C(COc1ccc2c(C(F)(F)F)cc(=O)oc2c1)Nc1ccc2c(c1)OCCO2 | 16.4 µM [falling, single point] | 
2 | CC(C)c1ccc(/C=C/C(=O)NCCC2=CCCCC2)cc1 | 29.1 µM [falling, single point] | 32.6 µM [rising, partial curve, poor fit]
3 | CCc1ccc(C2NC(=S)NC3=C2C(=O)N(c2ccccc2OC)C(c2ccc(CC)cc2)N3)cc1 (stereo not drawn) | 18.4 µM [falling, single point] | 
4 | C=CCn1c(SCC(=O)NC2CCS(=O)(=O)C2)nnc1-c1cc2c(s1)CCC(CC)C2 (stereo not drawn) | 0.116 µM [falling, full curve, poor fit] | 
5 | CCN1CCN(C(=S)NC(=O)c2cccc(Br)c2)CC1 |  | 8.2 µM [falling, single point]
6 | COc1ccc(N2CCN(C(=O)COC(=O)c3oc4ccc(OC)cc4c3C)CC2)cc1 | 14.6 µM [rising, partial curve, poor fit] | 
7 | O=C(CSc1nc(-c2ccccc2)c(-c2ccccc2)[nH]1)Nc1nccs1 | 3.98 µM [falling, partial curve, poor fit] | 4.47 µM [rising, partial curve, poor fit]
8 | CCOc1ccc2nc(NC(=O)c3ccoc3C)sc2c1 | 11.2 µM [falling, partial curve] | 
9 | CS(=O)(=O)N1CCC(Oc2cccc(C(=O)NCCCOc3cccnc3)c2)CC1 | 14.1 µM [falling, single point] | 
10 | Clc1ccc(OCc2cn3ccccc3n2)c2ncccc12 | 10 µM [falling, partial curve, poor fit] | 
11 | O=C(Nc1cccc([N+](=O)[O-])c1)ONC1=NCCCCC1 | 6.31 µM [rising, full curve, poor fit] | 
12 | CC1C/C(=N/NC(=O)c2cccs2)CC(C)(C)C1 (stereo not drawn) | 20.6 µM [falling, partial curve] | 
13 | Cc1noc(C)c1S(=O)(=O)N(CC(=O)Nc1ccc2c(c1)OCCO2)c1ccc(C(C)C)cc1 | 35.5 µM [falling, single point] | 
14 | CN1CCN(c2ncnc3sc(-c4ccccc4)cc23)CC1 | 5.62 µM [rising, partial curve, poor fit] | 
15 | CCc1ccc(O)c(N=Cc2cccc(C)c2O)c1 | 2.06 µM [rising, partial curve, poor fit] | 
16 | COc1ccc(S(=O)(=O)NNC(=S)NCCc2ccccc2)c(OC)c1 | 4.47 µM [rising, full curve, poor fit] | 
17 | COc1ccc(Cl)cc1NC(=O)Cn1nnc(C(=O)NCc2ccc3c(c2)OCO3)c1N | 35.5 µM [rising, single point] | 
18 | CCCOc1ccc(NC2=CC(=O)CC(C)(C)C2)cc1 | 0.259 µM [falling, full curve, poor fit] | 
19 | CCN(CC)CCOC(=O)c1ccc(NC(=O)c2cc3cccc(OC)c3oc2=O)cc1 | 0.316 µM [falling, full curve, poor fit] | 
20 | CC(C)(C)OC(=O)NCCc1nnc(SCC(=O)Nc2ccc(Br)cc2)o1 | 11.2 µM [falling, partial curve, poor fit] | 
21 | C/C(=N/NC(=O)c1ccoc1C)c1ccc(NC(=O)c2ccncc2)cc1 | 5.8 µM [falling, partial curve] | 

Four of the compounds above, as a markdown table:

| Row | SMILES | AC50 [1] | AC50 [2] |
| --- | --- | --- | --- |
| 15 | CCc1ccc(O)c(N=Cc2cccc(C)c2O)c1 | 2.06 µM [rising, partial curve, poor fit] |  |
| 16 | COc1ccc(S(=O)(=O)NNC(=S)NCCc2ccccc2)c(OC)c1 | 4.47 µM [rising, full curve, poor fit] |  |
| 17 | COc1ccc(Cl)cc1NC(=O)Cn1nnc(C(=O)NCc2ccc3c(c2)OCO3)c1N | 35.5 µM [rising, single point] |  |
| 18 | CCCOc1ccc(NC2=CC(=O)CC(C)(C)C2)cc1 | 0.259 µM [falling, full curve, poor fit] |  |

(next part)

Row | SMILES | AC50 [1] | AC50 [2]
22 | CC1(C)CCC(=O)N2CC[C@H]3C[C@H](OC(=O)Nc4ccc(Br)cc4)C[C@@H]1[C@H]32 | 0.316 µM [rising, full curve, poor fit] | 
23 | Cc1ccc2nc(NC(=O)c3ccc(OCC4CCCO4)cc3)sc2c1 (stereo not drawn) | 2.06 µM [falling, full curve] | 
24 | c1cnc(N2CCN(Cc3ccc4c(c3)OCO4)CC2)nc1 | 16.4 µM [rising, partial curve] | 
25 | Cc1[nH]nc2c1/C(=N/O)CC(c1ccccc1)C2 (stereo not drawn) | 3.98 µM [falling, full curve] | 
26 | CNC(=O)c1ccc(Nc2nnc(-c3ccc(C)c(S(=O)(=O)NCC4CCCO4)c3)c3ccccc23)cc1 (stereo not drawn) | 16.4 µM [falling, partial curve, poor fit] | 
27 | CCOC(=O)N1CCN(C(=O)CN(c2ccc3c(c2)OCO3)S(C)(=O)=O)CC1 | 29.1 µM [rising, partial curve, poor fit] | 
28 | CNC(=O)c1c(NC(=O)C2=COCCO2)sc2c1CCCC2 | 6.31 µM [rising, single point] | 
29 | CCCCCCCNC1=CC(=O)CC(c2ccco2)C1 (stereo not drawn) | 16.4 µM [rising, partial curve, poor fit] | 
30 | FC(F)(F)c1cccc(OCC2CNC(=S)O2)c1 (stereo not drawn) | 0.0891 µM [rising, full curve, poor fit] | 
31 | O=C(NCCc1ccccc1)C(=S)N1CCCCC1 | 15.8 µM [rising, single point] | 
32 | COc1ccc(/C=C2/SC(=S)N(CCCC(=O)Nc3ccc(O)cc3)C2=O)cc1 | 2.82 µM [falling, partial curve] | 
33 | O=C(CCn1c(=O)[nH]c2ccccc2c1=O)N1CCN(c2cccc(C(F)(F)F)c2)CC1 | 1.78 µM [rising, partial curve, poor fit] | 
34 | COc1ccc(NC(=O)c2cccc(S(=O)(=O)N3CCCCC3)c2)c(OC)c1 | 10 µM [falling, single point] | 
35 | CCOC(=O)C(C(=O)OCC)c1cc(Br)c2noc3c2c1C(=O)c1ccccc1-3 |  | 0.708 µM [rising, full curve, poor fit]
36 | Cc1cc(C=NCCO)c(C)n1-c1cc(Cl)ccc1Cl | 20 µM [falling, partial curve, poor fit] | 
37 | CCOC(=O)c1cc2c(ccc3ccccc32)oc1=O | 0.1 µM [rising, full curve, poor fit] | 
38 | C=CCSc1nnc(N2C(=O)C(O)=C(C(=O)c3ccco3)C2c2ccc(F)cc2)s1 (stereo not drawn) | 11.2 µM [falling, single point] | 
39 | Cn1c(=O)c(C(=O)COC(=O)c2cc(-c3ccccc3)nc3ccccc23)c(N)n(Cc2ccccc2)c1=O | 1.03 µM [rising, full curve, poor fit] | 
40 | CC(CN1CCCCC1)OC(=O)c1ccccc1Cl (stereo not drawn) | 6.51 µM [falling, single point] | 
41 | CC(C)CCn1c(O)c(N=Nc2ccccn2)c2ccccc21 | 11.6 µM [rising, partial curve] | 
42 | CN(C)NC(=O)c1ccsc1NC(=O)c1ccc(S(=O)(=O)N(C)C)cc1 | 0.112 µM [falling, full curve, poor fit] | 

Row | SMILES | AC50 [1] | AC50 [2]
43 | Cn1cc([N+](=O)[O-])c(C(=O)Nc2ccc(-c3nc4ccccc4[nH]3)cc2)n1 | 23.1 µM [falling, single point] | 
44 | COc1ccccc1NC(c1cccnc1)c1ccc2cccnc2c1O (stereo not drawn) | 8.2 µM [falling, partial curve, poor fit] | 
45 | CN1C2=CC=CC=CC2=[N+](C)C12C=CC(=[N+]([O-])[O-])C=C2[N+](=O)[O-] (stereo not drawn) | 35.5 µM [rising, partial curve, poor fit] | 
46 | O=C(COC(=O)CCCN1C(=O)c2cccc3cccc(c23)C1=O)NC1CCS(=O)(=O)C1 (stereo not drawn) | 1.16 µM [rising, full curve] | 
47 | Nc1cc(S(=O)(=O)N2CCOCC2)ccc1N1CCCCC1 | 23.1 µM [rising, single point] | 
48 | O=C(Cc1ccc(Cl)cc1)NC(=S)Nc1ccccc1N1CCOCC1 |  | 23.1 µM [rising, partial curve, poor fit]
49 | Cc1nc2c3ccccc3n(Cc3ccccc3F)c2s1 | 14.6 µM [rising, partial curve, poor fit] | 
50 | CCOC(=O)N1CCN(c2nc3ccc(C(=O)c4ccccc4)cc3n3cnnc23)CC1 | 35.5 µM [rising, partial curve, poor fit] | 
51 | COc1ccc2ccc(O)c(CN3CCN(S(=O)(=O)c4cc([N+](=O)[O-])ccc4C)CC3)c2c1 |  | 8.2 µM [falling, partial curve, poor fit]
52 | O=C(CSC(=S)N1CCCC1)c1ccccc1 | 15.8 µM [falling, partial curve] | 
53 | Cc1cccc([C@@H]2[C@@H]3C(=O)N(Cc4ccccc4)C(=O)[C@@H]3[C@]3(CC(C)C)C(=O)N(c4cccc(Br)c4)C(=O)N23)c1 | 1.41 µM [falling, full curve, poor fit] | 
54 | O=C(NC(=S)Nc1cccc(Cl)c1N1CCCCC1)c1cccs1 | 14.1 µM [rising, single point] | 
55 | Cc1c(C(=O)Nc2nc3ccccc3[nH]2)oc2c(Cl)cccc12 | 2.31 µM [falling, full curve, poor fit] | 
56 | Cc1ccc(C)c(NC(=O)c2nnn(Cc3ccccc3C)c2N)c1 | 8.91 µM [falling, partial curve, poor fit] | 
57 | COc1ccc(NC(=O)N(C)C[C@H]2Oc3c(NC(=O)Cc4ccccc4)cccc3C(=O)N([C@H](C)CO)C[C@@H]2C)cc1 | 25.9 µM [rising, single point] | 
58 | COc1ccc(CN2CCN(C(=O)c3ccc(S(=O)(=O)N4CCCCCC4)cc3)CC2)cc1 | 2.91 µM [rising, partial curve, poor fit] | 
59 | C=COC(=O)CSc1nc(-c2cccs2)ccc1C#N | 0.447 µM [rising, full curve, poor fit] | 
60 | O=C(C1CCN(S(=O)(=O)c2cnc[nH]2)CC1)N(CCc1ccccc1)Cc1ccccc1 | 0.178 µM [rising, full curve, poor fit] | 
61 | CCOC(=O)c1ccccc1NC(=O)c1c(O)c2ccccc2n(CC)c1=O | 0.366 µM [falling, full curve, poor fit] | 
